The target in this assay is Human NOP Rluc-tagged fusion protein (N/OFQ peptide receptor fused to Renilla luciferase) (human) (UniProt P41146). The experiment in a line: FRET or BRET; BRET between NOP-RLuc and β-arrestin 2-RGFP in whole co-expressing HEK293 cells (100,000 cells/well), DPBS with 0.5 mM MgCl2 and 0.9 mM CaCl2, coelenterazine 5 μM, agonist added 5 min before reading, room temperature; also after PTX 10 ng 20 h (negligible effect). On the technique in general: In BRET a luciferase serves as donor, and the signal depends on an acceptor being close.

By UniProt entry, the sequences of proteins in these tests, tags left out. Residues count along the entry.
UniProt P41146: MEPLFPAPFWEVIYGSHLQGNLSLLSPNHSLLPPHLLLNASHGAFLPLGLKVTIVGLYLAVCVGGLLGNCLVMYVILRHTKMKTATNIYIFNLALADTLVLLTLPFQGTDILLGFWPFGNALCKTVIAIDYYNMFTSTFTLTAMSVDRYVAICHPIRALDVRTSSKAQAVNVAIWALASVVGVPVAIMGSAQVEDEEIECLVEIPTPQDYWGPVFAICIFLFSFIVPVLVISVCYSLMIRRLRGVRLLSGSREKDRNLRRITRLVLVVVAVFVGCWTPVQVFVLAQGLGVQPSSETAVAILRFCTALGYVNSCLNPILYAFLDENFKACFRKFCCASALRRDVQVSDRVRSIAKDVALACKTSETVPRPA
UniProt P32121, residues 2-409: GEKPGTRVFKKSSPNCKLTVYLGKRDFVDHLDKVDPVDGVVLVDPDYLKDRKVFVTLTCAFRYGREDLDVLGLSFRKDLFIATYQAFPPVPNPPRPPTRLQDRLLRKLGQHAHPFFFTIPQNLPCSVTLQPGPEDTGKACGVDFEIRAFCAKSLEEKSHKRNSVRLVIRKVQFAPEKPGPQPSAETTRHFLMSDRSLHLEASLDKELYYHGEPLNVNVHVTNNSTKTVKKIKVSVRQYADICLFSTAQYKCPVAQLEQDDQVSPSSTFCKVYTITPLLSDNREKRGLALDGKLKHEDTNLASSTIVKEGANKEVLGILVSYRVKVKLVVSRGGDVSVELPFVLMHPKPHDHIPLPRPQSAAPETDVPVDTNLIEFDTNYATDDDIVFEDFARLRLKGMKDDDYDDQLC

These are yes or no findings as the source states them, for the method shown. In cells and extracts the contact can be indirect. Some binding calls cover weakened binding; strength is not graded here.

Binding data for 1 substance are collected here from PMC4527783 (PLoS ONE, 2015).

In the case of “Human β-arrestin 2 tethered to the C terminus of RGFP (from UniProt P32121 2-409)”, the binding entry is on record as “binds”.
